Measurements published in publication PMC10652496.
Like-named read-outs stand apart in the source and are kept apart here. Results are given in words; binding and its absence hold for the method and conditions named. In cells and extracts the contact can be indirect. Some binding calls cover weakened binding; strength is not graded here. For some assays here: Sequences can lack the tags named with a protein. Values belong to the molecule of their own block, whether it stands above or below them.

Sequences of proteins named here, by UniProt entry; tags and fusion partners are left off. A change or cut given only in a name is not applied to a line headed by its entry. A line that says so, or that is headed by a name, gives the form on record, which may keep a tag or linker.
UniProt Q9HB71: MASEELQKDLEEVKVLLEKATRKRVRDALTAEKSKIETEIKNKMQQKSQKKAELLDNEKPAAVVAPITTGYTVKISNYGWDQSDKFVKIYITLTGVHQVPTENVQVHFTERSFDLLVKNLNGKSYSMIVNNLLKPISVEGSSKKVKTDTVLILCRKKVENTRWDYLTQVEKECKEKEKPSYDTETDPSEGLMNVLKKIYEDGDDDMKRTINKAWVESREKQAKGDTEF
UniProt Q99836: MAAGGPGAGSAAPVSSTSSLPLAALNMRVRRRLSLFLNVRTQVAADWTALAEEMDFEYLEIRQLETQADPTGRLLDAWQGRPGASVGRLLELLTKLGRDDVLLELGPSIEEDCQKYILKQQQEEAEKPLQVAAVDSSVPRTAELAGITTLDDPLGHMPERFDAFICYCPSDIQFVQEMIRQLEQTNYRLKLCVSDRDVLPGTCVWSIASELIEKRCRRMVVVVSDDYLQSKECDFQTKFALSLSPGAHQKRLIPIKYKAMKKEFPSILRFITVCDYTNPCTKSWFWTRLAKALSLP
Flag-tagged Myd88 △DD (Q99836, form named): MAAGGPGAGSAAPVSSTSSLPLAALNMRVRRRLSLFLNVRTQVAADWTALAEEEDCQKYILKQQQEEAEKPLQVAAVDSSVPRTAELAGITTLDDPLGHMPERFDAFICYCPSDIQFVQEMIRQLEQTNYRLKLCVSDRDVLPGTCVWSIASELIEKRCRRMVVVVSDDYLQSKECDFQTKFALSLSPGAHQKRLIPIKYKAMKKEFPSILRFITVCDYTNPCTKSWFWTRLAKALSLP
Flag-tagged Myd88 △INT (Q99836, form named): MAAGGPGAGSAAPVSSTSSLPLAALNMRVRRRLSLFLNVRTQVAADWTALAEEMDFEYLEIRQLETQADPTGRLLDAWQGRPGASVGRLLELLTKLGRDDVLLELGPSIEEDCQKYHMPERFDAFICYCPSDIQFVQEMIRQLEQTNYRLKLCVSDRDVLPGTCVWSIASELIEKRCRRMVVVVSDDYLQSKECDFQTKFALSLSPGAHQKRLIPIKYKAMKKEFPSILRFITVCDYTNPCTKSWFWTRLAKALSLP

Tests used:
[1] = molecular target: Flag-tagged CacyBP (Calcyclin-Binding Protein and Siah-1 Interacting Protein) (human) (UniProt Q9HB71); test: co-IP; HEK293T cells transiently co-transfected with Flag- and HA-tagged constructs; lysis and washes in NETN buffer (100 mM NaCl, 20 mM Tris-Cl pH 8.0, 0.5 mM EDTA, 0.5% IGEPAL); Flag-agarose beads at 4 °C overnight; western blotting
[2] = molecular target: Myd88 in HCC cells (co-immunoprecipitation) (human) (UniProt Q99836); test: co-IP; HCC cells transfected with the indicated plasmids; co-immunoprecipitation of Siah-1 and Myd88; western blotting
[3] = molecular target: Myd88 in HCC cells (co-immunoprecipitation) (human) (UniProt Q99836); test: co-IP; immunoprecipitation of Siah-1 and Myd88 after CacyBP depletion or overexpression in PLC/PRF/5 or Huh7 cells (competition)
[4] = molecular target: Flag-tagged CacyBP (Calcyclin-Binding Protein and Siah-1 Interacting Protein) (human) (UniProt Q9HB71); test: co-IP; HEK293T cells transiently co-transfected with Flag- and HA-tagged constructs; lysis and washes in NETN buffer (100 mM NaCl, 20 mM Tris-Cl pH 8.0, 0.5 mM EDTA, 0.5% IGEPAL); Flag-agarose beads at 4 °C overnight; western blotting; remark: listed apart in the source
[5] = molecular target: Flag-tagged Myd88 (human) (UniProt Q99836); test: as above
[6] = molecular target: Flag-tagged Myd88 △DD (human) (UniProt Q99836); test: as above
[7] = molecular target: Flag-tagged Myd88 △INT (human) (UniProt Q99836); test: as above
[8] = molecular target: Myd88 detected in situ in PLC/PRF/5 and Huh7 cells (proximity ligation assay) (human) (UniProt Q99836); test: proximity ligation; Duolink In Situ Red kit Mouse/Rabbit on fixed, permeabilised PLC/PRF/5 and Huh7 cells after CacyBP silencing or overexpression; confocal microscopy

Molecule: HA-tagged Myd88 (from UniProt Q99836 1-296)
- binding [1]: binds

B2: HA-tagged Siah-1 (enzyme, UniProt Q8IUQ4 1-282)
chain: MSRQTATALPTGTSKCPPSQRVPALTGTTASNNDLASLFECPVCFDYVLPPILQCQSGHLVCSNCRPKLTCCPTCRGPLGSIRNLAMEKVANSVLFPCKYASSGCEITLPHTEKADHEELCEFRPYSCPCPGASCKWQGSLDAVMPHLMHQHKSITTLQGEDIVFLATDINLPGAVDWVMMQSCFGFHFMLVLEKQEKYDGHQQFFAIVQLIGTRKQAENFAYRLELNGHRRRLTWEATPRSIHEGIATAIMNSDCLVFDTSIAQLFAENGNLGINVTISMC
- binding [4]: binds
- binding [5]: binds
- binding [6]: binds
- binding [7]: binds

Continued, values first:

- binding [2]: binds
- binding [3]: binds
B1: Siah-1 in HCC cells (co-immunoprecipitation) (enzyme, UniProt Q8IUQ4 1-282)
chain: MSRQTATALPTGTSKCPPSQRVPALTGTTASNNDLASLFECPVCFDYVLPPILQCQSGHLVCSNCRPKLTCCPTCRGPLGSIRNLAMEKVANSVLFPCKYASSGCEITLPHTEKADHEELCEFRPYSCPCPGASCKWQGSLDAVMPHLMHQHKSITTLQGEDIVFLATDINLPGAVDWVMMQSCFGFHFMLVLEKQEKYDGHQQFFAIVQLIGTRKQAENFAYRLELNGHRRRLTWEATPRSIHEGIATAIMNSDCLVFDTSIAQLFAENGNLGINVTISMC

- binding [8]: binds
B3: Siah-1 detected in situ in PLC/PRF/5 and Huh7 cells (proximity ligation assay) (enzyme, UniProt Q8IUQ4 1-282)
chain: MSRQTATALPTGTSKCPPSQRVPALTGTTASNNDLASLFECPVCFDYVLPPILQCQSGHLVCSNCRPKLTCCPTCRGPLGSIRNLAMEKVANSVLFPCKYASSGCEITLPHTEKADHEELCEFRPYSCPCPGASCKWQGSLDAVMPHLMHQHKSITTLQGEDIVFLATDINLPGAVDWVMMQSCFGFHFMLVLEKQEKYDGHQQFFAIVQLIGTRKQAENFAYRLELNGHRRRLTWEATPRSIHEGIATAIMNSDCLVFDTSIAQLFAENGNLGINVTISMC
